Source: paper PMC7862700
The list shows a part of the results. The source does not settle which construct or isoform was used.

target: T1, ETV4 (UniProt P43268); assay: DAPPL (digital affinity profiling via proximity ligation, sequencing); details: 10 mM Tris-HCl pH 7.5, 50 mM NaCl, 1 mM DTT, 4% glycerol, room temperature, 30 min; GST-TFs on glutathione beads, 16-mer random dsDNA library, 0.1% …; high values mean tight binding; double strand, one strand shown; scale: fold enrichment (6-mer frequency, TF over GST control)
T1 sequence: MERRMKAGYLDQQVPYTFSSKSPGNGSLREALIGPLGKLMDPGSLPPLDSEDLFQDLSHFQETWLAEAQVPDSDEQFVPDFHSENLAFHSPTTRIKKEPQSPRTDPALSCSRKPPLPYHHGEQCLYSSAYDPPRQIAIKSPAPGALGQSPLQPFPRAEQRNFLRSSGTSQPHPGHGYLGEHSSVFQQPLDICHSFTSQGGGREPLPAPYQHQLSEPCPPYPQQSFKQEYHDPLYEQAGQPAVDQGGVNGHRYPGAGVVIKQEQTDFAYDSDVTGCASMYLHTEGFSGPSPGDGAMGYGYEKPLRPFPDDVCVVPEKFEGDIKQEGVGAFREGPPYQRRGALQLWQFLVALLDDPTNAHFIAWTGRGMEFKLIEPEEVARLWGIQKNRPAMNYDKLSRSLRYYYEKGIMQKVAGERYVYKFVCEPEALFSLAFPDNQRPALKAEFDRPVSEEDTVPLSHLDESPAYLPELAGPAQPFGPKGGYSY

Sequence	binding signal
TTGGTC	1.07
TTCTAT	1.41
TGTCAC	1.16
TCCGCT	2.37
CACATA	1.17
CACGGA	1
TCGCCG	1.13
TACCTA	1.32
GTTTAT	1.03
CCTCCG	1.5
AAGCTT	1.35
TTATCG	1.17
TTCGCG	1.11
ACAACA	1.21
ACACAT	1.31
CGTTTA	0.988
GGAACT	1.8
GCACAA	1.02
AATGTA	1.13
TACAGC	1.12

Exported in CSV form: entries from further up.
Sequence,binding signal
TCGCCG,1.13
TACCTA,1.32

Further results

Sequence	binding signal
CCGGGT	1.05
TGTACC	1.47
TATAAA	1.24
TACAAC	1.18
CGCTAT	1.08
GTTCGC	1.07
ATCGAC	1.1
CAATCT	1.22
TGTTAC	1.46
CACCAA	1.01
CTGACC	1.43
ACACCC	1.09
TTATCC	1.49
TGTCCT	1.52
CGTTCT	1.56
GTTATT	1.11
AATTTC	1.75
TAGCTC	1.23
TATGGG	1.28
AAGATT	1.16
